We go through two substances from paper PMC10927090, “Plasmodium falciparum contains functional SCF and CRL4 ubiquitin E3 ligases, and CRL4 is critical for cell division and membrane integrity” (PLOS Pathogens, 2024).

No constants are given. Whether binding was seen depends on the method and setting. For some of these results: Binding calls can cover weak binding; strength is not graded here. Tags and fused reporters may be left off the sequences shown.

Test [1] deals with T1, 6×His-tagged PfSkp1 (P. falciparum) (UniProt Q8ID38).
T1 sequence: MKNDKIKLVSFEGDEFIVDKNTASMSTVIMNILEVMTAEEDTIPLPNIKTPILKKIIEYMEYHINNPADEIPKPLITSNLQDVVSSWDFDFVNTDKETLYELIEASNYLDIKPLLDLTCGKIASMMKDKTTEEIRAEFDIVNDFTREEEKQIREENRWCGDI
In words: far-Western, overlay or dot blot; dot blot protein overlay: different amounts of HisSkp, HisSUMO/Rbx or HisSUMO spotted on nitrocellulose, blocked (3% BSA in PBS-T), overlaid with 10 μg of GST or GST-tagged protein for 12 h at 4°C, detected with anti-GST antibodies; both purified.

The target of test [2] is T2, 6×His/SUMO-tagged PfRbx1 (P. falciparum) (UniProt O77367).
T2 sequence: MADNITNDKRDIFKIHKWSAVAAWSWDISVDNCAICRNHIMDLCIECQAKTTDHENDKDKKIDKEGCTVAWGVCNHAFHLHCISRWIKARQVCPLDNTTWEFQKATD
The test is described as above.

With “GST-tagged P. falciparum calcyclin binding protein”, the values for the binding result in test [1] and in test [2] were “binds” and “no binding (tested: 10 μg overlaid)”, respectively.
The matching figures for GST-tagged PfFBXO1 (P. falciparum): “binds” and “no binding (tested: 10 μg overlaid)”.
